The test deals with Aβ1–42 peptide (UniProt P05067). Put plainly: co-IP; Aβ immunoprecipitated with an anti-Aβ(17-24) antibody from HT22 cells pretreated with Aβ; blot for FGFR3; only the target purified.

Sequences of proteins named here, by UniProt entry; tags and fusion partners are left off. Residues count along the entry.
UniProt P05067, residues 672-713: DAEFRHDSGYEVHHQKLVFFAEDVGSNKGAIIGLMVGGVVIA
UniProt Q61851, residues 21-801: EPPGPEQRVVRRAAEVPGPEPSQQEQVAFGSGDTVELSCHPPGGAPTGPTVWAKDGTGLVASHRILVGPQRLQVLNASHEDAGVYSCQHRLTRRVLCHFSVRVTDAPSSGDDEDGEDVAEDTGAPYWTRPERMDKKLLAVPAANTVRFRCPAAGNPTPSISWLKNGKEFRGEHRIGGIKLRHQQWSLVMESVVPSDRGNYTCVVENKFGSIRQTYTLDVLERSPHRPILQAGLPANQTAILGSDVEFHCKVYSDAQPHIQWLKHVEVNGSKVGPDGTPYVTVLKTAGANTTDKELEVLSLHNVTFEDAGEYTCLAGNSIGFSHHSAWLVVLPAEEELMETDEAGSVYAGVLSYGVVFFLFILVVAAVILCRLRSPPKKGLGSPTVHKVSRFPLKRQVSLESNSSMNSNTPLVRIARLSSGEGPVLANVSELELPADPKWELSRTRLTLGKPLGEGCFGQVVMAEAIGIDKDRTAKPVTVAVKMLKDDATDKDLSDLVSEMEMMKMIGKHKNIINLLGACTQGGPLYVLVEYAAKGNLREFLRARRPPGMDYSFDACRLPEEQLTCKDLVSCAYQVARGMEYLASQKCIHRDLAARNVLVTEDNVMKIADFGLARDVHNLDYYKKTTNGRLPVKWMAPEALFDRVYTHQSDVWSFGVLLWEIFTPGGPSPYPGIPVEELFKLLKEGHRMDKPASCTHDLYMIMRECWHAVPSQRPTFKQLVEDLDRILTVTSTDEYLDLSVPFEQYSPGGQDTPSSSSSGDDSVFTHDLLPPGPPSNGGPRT

These are yes or no findings as the source states them, for the method shown. Binding seen in cells or lysates may run through a third protein.

Consider “fibroblast growth factor receptor 3 (FGFR3), endogenous in mouse neuronal cells (from UniProt Q61851 21-801)”, for which the binding entry was “no binding”.

These data come from publication PMC11297141.
